These are yes or no findings as the source states them, for the method shown. Binding seen in cells or lysates may run through a third protein. Some binding calls cover weakened binding; strength is not graded here.

The chains behind the UniProt entries cited, without tags or fusion partners.
UniProt Q9UIF9: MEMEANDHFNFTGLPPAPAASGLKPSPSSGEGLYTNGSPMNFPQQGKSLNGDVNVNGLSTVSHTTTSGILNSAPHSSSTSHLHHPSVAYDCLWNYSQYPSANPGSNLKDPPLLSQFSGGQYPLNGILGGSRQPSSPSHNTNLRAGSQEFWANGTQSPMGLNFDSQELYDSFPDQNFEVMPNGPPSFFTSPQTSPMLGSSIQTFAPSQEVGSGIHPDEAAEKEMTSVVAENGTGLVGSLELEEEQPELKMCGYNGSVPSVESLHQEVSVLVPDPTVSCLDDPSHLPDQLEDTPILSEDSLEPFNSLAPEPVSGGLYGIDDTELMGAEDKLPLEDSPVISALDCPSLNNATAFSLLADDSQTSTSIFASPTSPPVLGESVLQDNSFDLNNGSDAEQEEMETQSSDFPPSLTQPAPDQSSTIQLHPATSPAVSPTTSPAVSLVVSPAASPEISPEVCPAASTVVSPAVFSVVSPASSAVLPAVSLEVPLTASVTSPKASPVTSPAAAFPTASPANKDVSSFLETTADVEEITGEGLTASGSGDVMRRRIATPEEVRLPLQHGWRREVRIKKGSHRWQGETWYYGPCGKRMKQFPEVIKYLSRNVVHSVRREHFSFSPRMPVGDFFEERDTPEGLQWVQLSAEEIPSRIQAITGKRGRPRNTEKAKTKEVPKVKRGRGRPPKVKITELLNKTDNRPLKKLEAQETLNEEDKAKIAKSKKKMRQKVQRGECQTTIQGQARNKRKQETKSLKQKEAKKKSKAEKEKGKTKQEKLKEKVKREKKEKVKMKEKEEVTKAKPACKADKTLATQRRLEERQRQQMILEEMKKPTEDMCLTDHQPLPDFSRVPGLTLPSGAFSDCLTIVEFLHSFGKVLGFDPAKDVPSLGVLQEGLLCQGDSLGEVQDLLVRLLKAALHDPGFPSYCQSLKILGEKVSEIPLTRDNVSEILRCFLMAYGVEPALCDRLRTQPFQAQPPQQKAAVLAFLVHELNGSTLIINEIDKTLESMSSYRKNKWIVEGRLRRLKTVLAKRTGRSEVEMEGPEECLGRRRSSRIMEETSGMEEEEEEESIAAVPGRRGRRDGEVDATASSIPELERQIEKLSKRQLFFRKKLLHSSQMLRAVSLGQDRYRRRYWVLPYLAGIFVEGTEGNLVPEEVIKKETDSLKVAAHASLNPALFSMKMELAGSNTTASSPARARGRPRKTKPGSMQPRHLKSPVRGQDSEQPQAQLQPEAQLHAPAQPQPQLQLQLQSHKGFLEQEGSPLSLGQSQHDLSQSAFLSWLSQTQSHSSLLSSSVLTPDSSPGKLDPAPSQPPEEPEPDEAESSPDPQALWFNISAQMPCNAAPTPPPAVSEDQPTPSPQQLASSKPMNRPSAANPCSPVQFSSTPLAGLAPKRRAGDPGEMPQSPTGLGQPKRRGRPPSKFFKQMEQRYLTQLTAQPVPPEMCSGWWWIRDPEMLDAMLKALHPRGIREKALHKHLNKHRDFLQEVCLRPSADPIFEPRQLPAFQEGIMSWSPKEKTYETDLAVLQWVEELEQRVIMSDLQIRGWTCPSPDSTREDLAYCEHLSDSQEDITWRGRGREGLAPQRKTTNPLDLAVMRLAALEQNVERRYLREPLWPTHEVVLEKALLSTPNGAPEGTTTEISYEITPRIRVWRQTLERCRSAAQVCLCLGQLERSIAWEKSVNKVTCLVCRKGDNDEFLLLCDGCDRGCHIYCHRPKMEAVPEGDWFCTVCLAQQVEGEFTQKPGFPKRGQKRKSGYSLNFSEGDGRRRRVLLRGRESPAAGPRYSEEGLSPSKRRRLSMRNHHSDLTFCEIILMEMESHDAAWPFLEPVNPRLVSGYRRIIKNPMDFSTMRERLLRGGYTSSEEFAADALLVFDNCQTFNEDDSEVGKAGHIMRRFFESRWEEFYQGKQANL

Test [1] concerns the target endogenous BAZ2A tagged with HA and FLAG sequences (human (endogenous in PC3)) (UniProt Q9UIF9). Briefly: co-IP; as a3, but the nuclear extract treated with 100 μg/ml RNase A during the overnight IP at 4°C; Western blot. (A western blot detects proteins with antibodies after separation by electrophoresis.)
Test [2] has the same target. Briefly: co-IP; anti-HA magnetic beads IP from MNase-digested nuclear extract of the PC3 line with endogenous F/H-tagged BAZ2A, parental PC3 cells as control; without RNase A; Western blot.

B1: NUP107 (protein, UniProt P57740 1-925)
chain: MDRSGFGEISSPVIREAEVTRTARKQSAQKRVLLQASQDENFGNTTPRNQVIPRTPSSFRQPFTPTSRSLLRQPDISCILGTGGKSPRLTQSSGFFGNLSMVTNLDDSNWAAAFSSQRSGLFTNTEPHSITEDVTISAVMLREDDPGEAASMSMFSDFLQSFLKHSSSTVFDLVEEYENICGSQVNILSKIVSRATPGLQKFSKTASMLWLLQQEMVTWRLLASLYRDRIQSALEEESVFAVTAVNASEKTVVEALFQRDSLVRQSQLVVDWLESIAKDEIGEFSDNIEFYAKSVYWENTLHTLKQRQLTSYVGSVRPLVTELDPDAPIRQKMPLDDLDREDEVRLLKYLFTLIRAGMTEEAQRLCKRCGQAWRAATLEGWKLYHDPNVNGGTELEPVEGNPYRRIWKISCWRMAEDELFNRYERAIYAALSGNLKQLLPVCDTWEDTVWAYFRVMVDSLVEQEIQTSVATLDETEELPREYLGANWTLEKVFEELQATDKKRVLEENQEHYHIVQKFLILGDIDGLMDEFSKWLSKSRNNLPGHLLRFMTHLILFFRTLGLQTKEEVSIEVLKTYIQLLIREKHTNLIAFYTCHLPQDLAVAQYALFLESVTEFEQRHHCLELAKEADLDVATITKTVVENIRKKDNGEFSHHDLAPALDTGTTEEDRLKIDVIDWLVFDPAQRAEALKQGNAIMRKFLASKKHEAAKEVFVKIPQDSIAEIYNQCEEQGMESPLPAEDDNAIREHLCIRAYLEAHETFNEWFKHMNSVPQKPALIPQPTFTEKVAHEHKEKKYEMDFGIWKGHLDALTADVKEKMYNVLLFVDGGWMVDVREDAKEDHERTHQMVLLRKLCLPMLCFLLHTILHSTGQYQECLQLADMVSSERHKLYLVFSKEELRKLLQKLRESSLMLLDQGLDPLGYEIQL
Regarding B1, the binding entry in test [1] and in test [2] was “binds” throughout.

B2: SMC1A (protein, UniProt Q14683 1-1233)
chain: MGFLKLIEIENFKSYKGRQIIGPFQRFTAIIGPNGSGKSNLMDAISFVLGEKTSNLRVKTLRDLIHGAPVGKPAANRAFVSMVYSEEGAEDRTFARVIVGGSSEYKINNKVVQLHEYSEELEKLGILIKARNFLVFQGAVESIAMKNPKERTALFEEISRSGELAQEYDKRKKEMVKAEEDTQFNYHRKKNIAAERKEAKQEKEEADRYQRLKDEVVRAQVQLQLFKLYHNEVEIEKLNKELASKNKEIEKDKKRMDKVEDELKEKKKELGKMMREQQQIEKEIKEKDSELNQKRPQYIKAKENTSHKIKKLEAAKKSLQNAQKHYKKRKGDMDELEKEMLSVEKARQEFEERMEEESQSQGRDLTLEENQVKKYHRLKEEASKRAATLAQELEKFNRDQKADQDRLDLEERKKVETEAKIKQKLREIEENQKRIEKLEEYITTSKQSLEEQKKLEGELTEEVEMAKRRIDEINKELNQVMEQLGDARIDRQESSRQQRKAEIMESIKRLYPGSVYGRLIDLCQPTQKKYQIAVTKVLGKNMDAIIVDSEKTGRDCIQYIKEQRGEPETFLPLDYLEVKPTDEKLRELKGAKLVIDVIRYEPPHIKKALQYACGNALVCDNVEDARRIAFGGHQRHKTVALDGTLFQKSGVISGGASDLKAKARRWDEKAVDKLKEKKERLTEELKEQMKAKRKEAELRQVQSQAHGLQMRLKYSQSDLEQTKTRHLALNLQEKSKLESELANFGPRINDIKRIIQSREREMKDLKEKMNQVEDEVFEEFCREIGVRNIREFEEEKVKRQNEIAKKRLEFENQKTRLGIQLDFEKNQLKEDQDKVHMWEQTVKKDENEIEKLKKEEQRHMKIIDETMAQLQDLKNQHLAKKSEVNDKNHEMEEIRKKLGGANKEMTHLQKEVTAIETKLEQKRSDRHNLLQACKMQDIKLPLSKGTMDDISQEEGSSQGEDSVSGSQRISSIYAREALIEIDYGDLCEDLKDAQAEEEIKQEMNTLQQKLNEQQSVLQRIAAPNMKAMEKLESVRDKFQETSDEFEAARKRAKKAKQAFEQIKKERFDRFNACFESVATNIDEIYKALSRNSSAQAFLGPENPEEPYLDGINYNCVAPGKRFRPMDNLSGGEKTVAALALLFAIHSYKPAPFFVLDEIDAALDNTNIGKVANYIKEQSTCNFQAIVISLKEEFYTKAESLIGVYPEQGDCVISKVLTFDLTKYPDANPNPNEQ
In the case of B2, the binding result in test [1] and in test [2] was “binds” each time.

B3: RAD21 (protein, UniProt O60216 1-631)
chain: MFYAHFVLSKRGPLAKIWLAAHWDKKLTKAHVFECNLESSVESIISPKVKMALRTSGHLLLGVVRIYHRKAKYLLADCNEAFIKIKMAFRPGVVDLPEENREAAYNAITLPEEFHDFDQPLPDLDDIDVAQQFSLNQSRVEEITMREEVGNISILQENDFGDFGMDDREIMREGSAFEDDDMLVSTTTSNLLLESEQSTSNLNEKINHLEYEDQYKDDNFGEGNDGGILDDKLISNNDGGIFDDPPALSEAGVMLPEQPAHDDMDEDDNVSMGGPDSPDSVDPVEPMPTMTDQTTLVPNEEEAFALEPIDITVKETKAKRKRKLIVDSVKELDSKTIRAQLSDYSDIVTTLDLAPPTKKLMMWKETGGVEKLFSLPAQPLWNNRLLKLFTRCLTPLVPEDLRKRRKGGEADNLDEFLKEFENPEVPREDQQQQHQQRDVIDEPIIEEPSRLQESVMEASRTNIDESAMPPPPPQGVKRKAGQIDPEPVMPPQQVEQMEIPPVELPPEEPPNICQLIPELELLPEKEKEKEKEKEDDEEEEDEDASGGDQDQEERRWNKRTQQMLHGLQRALAKTGAESISLLELCRNTNRKQAAAKFYSFLVLKKQQAIELTQEEPYSDIIATPGPRFHII
For the molecule B3, the binding result in test [1] and in test [2] was “binds” throughout.

(Values after paper PMC10130768.)
